Data on one molecule can be found in PMC9949642.

The target of the assay is T1, ZTF-7::GFP::3xFLAG (C. elegans) (UniProt Q20448).
T1 sequence: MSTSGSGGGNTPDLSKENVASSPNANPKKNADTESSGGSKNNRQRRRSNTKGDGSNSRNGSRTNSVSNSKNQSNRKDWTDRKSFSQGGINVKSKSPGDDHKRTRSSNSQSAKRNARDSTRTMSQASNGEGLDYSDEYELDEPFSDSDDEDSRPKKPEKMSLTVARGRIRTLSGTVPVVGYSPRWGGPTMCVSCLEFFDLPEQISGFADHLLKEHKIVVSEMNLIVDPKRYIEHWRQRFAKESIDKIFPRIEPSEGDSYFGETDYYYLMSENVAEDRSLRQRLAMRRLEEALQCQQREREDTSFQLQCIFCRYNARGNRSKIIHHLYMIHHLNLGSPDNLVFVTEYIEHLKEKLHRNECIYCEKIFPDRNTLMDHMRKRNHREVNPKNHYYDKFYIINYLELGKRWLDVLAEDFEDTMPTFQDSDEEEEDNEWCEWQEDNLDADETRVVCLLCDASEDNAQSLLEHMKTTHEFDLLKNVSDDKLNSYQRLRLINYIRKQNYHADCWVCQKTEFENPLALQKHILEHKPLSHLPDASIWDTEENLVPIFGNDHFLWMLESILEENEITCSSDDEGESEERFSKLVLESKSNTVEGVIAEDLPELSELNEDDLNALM
Nature of the assay: affinity purification with mass spectrometry; ZTF-7::GFP::3xFLAG immunoprecipitated with anti-FLAG antibody from lysate of L3/L4 animals grown at 20°C (25 mM Tris-HCl pH 7.4, 150 mM NaCl, 10% glycerol, 1% NP-40, 1 mM EDTA), overnight at 4°C, Protein A/G agarose; SDS-PAGE, Coomassie stain, band cut out and identified by mass spectrometry.

Results are given in words; binding and its absence hold for the method and conditions named. Binding seen in cells or lysates may run through a third protein. Here binding means that the protein was enriched with, or labelled near, the bait; the list need not be complete. Sequences can lack the tags named with a protein.

B1: RPS-2 (protein, UniProt P51403 1-272)
chain: MADRGGFQSGFGGRGGGRGGARPAGDRPAGRGGRGGRGGRGGRGGRAGRGGEKETEWTPVTKLGRLVKEKKITTLEEIYLNSLPIKEFEIIDALCSNLKDEVLKISPVQKQTTAGQRTRFKAFVAIGDHAGHVGLGVKCSKEVATAIRGAIVAAKLAVVPVRRGYWGNKIGLPHTVPCKVTGKCASVMVRLIPAPRGTGIVSAPVPKKLLHMAGIEDCYTAAKGSTATLGNFAKATYAALQRTYSYLTPDLWKEEALEKSPYQRHHEYLARN
As for B1, the binding result is given as “binds”.
